# Experimental data: patent US20150232546A1 (THROMBOGENICS, published 2015)
# Results are given in words; binding and its absence hold for the method and conditions named.
# T1: human PDGF-C peptide no. 61 (human)
# T1 sequence (peptide, N-terminally biotinylated): SLTDVALEHHEECDC
# Target: T1, human PDGF-C peptide no. 61 (human)
# Test: peptide ELISA
row,Binder,binding
1,"anti-PDGF-C antibody 5A2 (antibody, IgG2b, V domains shown, Mouse monoclonal from hybridoma, IgG2b, kappa; also called mAb 5A2; hybridoma LMBP 9484CB) VH: EVQLVESGGDLVKPGGSLKLSCAASGFTFSNYGMSWVRQTPDKRLEWVATIGSGGHYTYYPDSVKGRFTISRDSAKSTLYLQMSSLKSEDTAIYYCARQAPLWDCSDYWGQGTTLTVSS VL: DVLMTQTPLSLPVSLGDQASISCRSNQSIVHSNGDTYLEWYLQKPGQSPKLLIYKVSNRFSGVPDRFSGSGSGTDFTLKISRVEAEDLGVYYCFQGSHVPPTFGGGTKLEIK",no binding (tested: 1 µg/mL)
2,"anti-PDGF-C antibody 2D3 (antibody, IgG1, V domains shown, Mouse monoclonal from hybridoma, IgG1, kappa; also called mAb 2D3; hybridoma LMBP 9483CB) VH: EVQLVESGGDLVKPGGSLKLSCAASGFTFSNYGMSWVRQTPDKRLEWVATIGSGGSYTYYPDSVKGRFTISRDSAKNTLYLQMSSLKSEDTAMYYCARQAPLWDYSDYWGQGTTLTVSS VL: DVLMTQTPLSLPVSLGDQASISCRSNQTIVHSNGDTYLEWYLQKPGQSPNLLIYKVSNRFSGVPDRFSGSGSGTDFTLKISRVEAEDLGVYYCFQGSHVPPTFGGGTKLEIK",no binding (tested: 1 µg/mL)
3,"anti-PDGF-C antibody 16B1 (antibody, IgG1, V domains shown, Mouse monoclonal from hybridoma, IgG1, kappa; VH same as 2D3, VL same as 5A2; also called mAb 16B1; hybridoma LMBP 9486CB) VH: EVQLVESGGDLVKPGGSLKLSCAASGFTFSNYGMSWVRQTPDKRLEWVATIGSGGSYTYYPDSVKGRFTISRDSAKNTLYLQMSSLKSEDTAMYYCARQAPLWDYSDYWGQGTTLTVSS VL: DVLMTQTPLSLPVSLGDQASISCRSNQSIVHSNGDTYLEWYLQKPGQSPKLLIYKVSNRFSGVPDRFSGSGSGTDFTLKISRVEAEDLGVYYCFQGSHVPPTFGGGTKLEIK",no binding (tested: 1 µg/mL)
4,"anti-PDGF-C antibody 29H1 (antibody, IgG1, V domains shown, Mouse monoclonal from hybridoma, IgG1, kappa; also called mAb 29H1; hybridoma LMBP 9487CB) VH: EVQLVESGGDLVKPGGSLKLSCAASGFTFSNYGMSWVRQTPDKRLEWVATIGSGGHYTYYPDSVKGRFTISRDSAKSTLYLQMSSLRSDDTAIYYCARQAPLWDCSDYWGQGTTLTVSS VL: DVLMTQTPLSLPVSLGDQASISCRSNQSIVHSNGDTYLEWYLQKPGQSPNLLIYKVSNRFSGVPDRFSGSGSGTDFTLKISRVEAEDLGVYYCFQGSHVPPTFGGGTKLEIK",no binding (tested: 1 µg/mL)
5,"anti-PDGF-C antibody 5H7 (antibody, IgG1, V domains shown, Mouse monoclonal from hybridoma, IgG1, kappa; also called mAb 5H7; hybridoma LMBP 9485CB) VH: EVQLVESGGDLVKPGGSLKLSCAASGFTFSSYGMSWVRQTPDKRLEWVATIGYGGSFTYYPDSMKGRFTISRDNAKNTLFLQMSSLKSEDTAIYYCVRQAPLWDYFDYWGQGTTLTVSS VL: DVLMTQTPLSLPVSLGDQASISCRSSQTIVHSDGTTYLEWYLQKAGQSPKLLIYKVSNRFSGVPDRFSGSGSGTDFTLKISRVEAEDLGVYYCFQGSHVPPTFGGGTKLEIK",no binding (tested: 1 µg/mL)
